Laboratory results taken from the supplement of paper PMC7024190.
Where a name gives a salt, the structure may show the parent alone. The list shows a part of the results. This data set is noisy: repeats of one test often differ as much as different tests do.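 Human embryonic kidney cells were transiently transfected with a plasmid bearing a Renilla luciferase gene under the HSV-TK promoter. This first-round screen tests roughly ten thousand compounds for ones that increase reporter output.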

Tested on: HEK 293FT
Test: log relative Renilla luciferase luminescence (reporter expression vs reference, reference not stated) (log (base not stated)); higher = higher recombinant reporter expression
Conditions: 10 µM; time after transfection 48 h

Structure (SMILES)	log
CC(=O)NCCCS(=O)(=O)O [Acamprosate calcium]	0.0626
CCOC(=O)O[C@]1(C(=O)COC(=O)CC)CC[C@H]2[C@@H]3CCC4=CC(=O)C=C[C@]4(C)[C@H]3[C@@H](O)C[C@@]21C [Prednicarbate]	0.03
C=C1c2c(Cl)ccc(O)c2C(=O)C2=C(O)[C@]3(O)C(=O)C(C(N)=O)=C(O)[C@@H](N(C)C)[C@@H]3[C@@H](O)[C@H]12.O=C(O)c1cc(S(=O)(=O)O)ccc1O [Meclocycline sulfosalicylate]	0.0324
CC(C)(C)NCC(O)COc1cccc2c1CCC(=O)N2 (centres undefined) [Carteolol hydrochloride]	-0.0656
Nc1nc2ccc(OC(F)(F)F)cc2s1 [Riluzole hydrochloride]	-0.0437
COc1ccc2c(c1)c(CC(=O)O)c(C)n2C(=O)c1ccc(Cl)cc1 [Indomethacin]	0.0344
C(=C\c1ccccc1)/CN1CCN(C(c2ccccc2)c2ccccc2)CC1 [Cinnarizine]	-0.0681
O=C(C1CCCCC1)N1CC(=O)N2CCc3ccccc3C2C1 (centres undefined) [Praziquantel]	0.0303
CC(=O)c1ccc2c(c1)N(CCCN(C)C)c1ccccc1S2 [Acetopromazine maleate salt]	0.00301
CN(C)CCOC(C)(c1ccccc1)c1ccccn1 (centres undefined) [Doxylamine succinate]	0.0221
CC(C)(C#N)c1cc(Cn2cncn2)cc(C(C)(C)C#N)c1 [Anastrozole]	-0.203
Oc1c(I)cc(Cl)c2cccnc12 [Clioquinol]	0.0751
Nc1ccn([C@H]2CC[C@@H](CO)O2)c(=O)n1 [Zalcitabine]	0.0404
CN(C(=O)C(Cl)Cl)c1ccc(OC(=O)c2ccco2)cc1 [Diloxanide furoate]	0.00934
CN(C)CCN1C(=O)c2ccccc2N(C)c2ccccc21 [Dibenzepine hydrochloride]	-0.0656
COc1ccc(OC)c(C(O)CNC(=O)CN)c1 (centres undefined) [Midodrine hydrochloride]	0.17
CN1CCN(CCCN2c3ccccc3Sc3ccc(C(F)(F)F)cc32)CC1 [Trifluoperazine dihydrochloride]	0.0283
CC[C@H](C)[C@H](N)C1=N[C@H](C(=O)N[C@@H](CC(C)C)C(=O)N[C@H](CCC(=O)O)C(=O)N[C@H](C(=O)N[C@H]2CCCCNC(=O)[C@H](CC(N)=O)NC(=O)[C@@H](CC(=O)O)NC(=O)[C@H](Cc3cnc[nH]3)NC(=O)[C@@H](Cc3ccccc3)NC(=O)[C@H]([C@@H](C)CC)NC(=O)[C@@H](CCCN)NC2=O)[C@@H](C)CC)CS1 [Bacitracin]	0.156
Oc1c(Cl)cc(Cl)c(Cl)c1Cc1c(O)c(Cl)cc(Cl)c1Cl [Hexachlorophene]	-1.3
Cc1c(N(C)C)c(=O)n(-c2ccccc2)n1C [Amidopyrine]	-0.0492
COc1ccc(/C=C/C(=O)Nc2ccccc2C(=O)O)cc1OC [Tranilast]	-0.0739
CCOC(=O)C1=C(COCCN)NC(C)=C(C(=O)OC)C1c1ccccc1Cl (centres undefined) [Amlodipine]	-0.00821
CN1[C@@H]2CC[C@H]1C[C@@H](OC(=O)c1c[nH]c3ccccc13)C2 [Tropisetron HCl]	0.0581

Quoted at random: 4 records from the list, in no set order.
Structure (SMILES)	log
Oc1c(I)cc(Cl)c2cccnc12 [Clioquinol]	0.0751
CN(C)CCOC(C)(c1ccccc1)c1ccccn1 (centres undefined) [Doxylamine succinate]	0.0221
CC(C)(C)NCC(O)COc1cccc2c1CCC(=O)N2 (centres undefined) [Carteolol hydrochloride]	-0.0656
COc1ccc(/C=C/C(=O)Nc2ccccc2C(=O)O)cc1OC [Tranilast]	-0.0739

Further compounds:

Structure (SMILES)	log
Cc1cccc(C)c1OCC(C)N (centres undefined) [Mexiletine hydrochloride]	-0.588
COc1ccccc1OCC(O)CO (centres undefined) [Guaifenesin]	-0.0762
NC[C@@H]1O[C@H](O[C@H]2[C@@H](O)[C@H](O[C@@H]3[C@@H](O)[C@H](N)C[C@H](N)[C@H]3O[C@H]3O[C@H](CO)[C@@H](O)[C@H](O)[C@H]3N)O[C@@H]2CO)[C@H](N)[C@@H](O)[C@@H]1O [Paromomycin sulfate]	-0.0369
CC(=O)[C@H]1CC[C@H]2[C@@H]3C=CC4=CC(=O)CC[C@@]4(C)[C@@H]3CC[C@]12C [Dydrogesterone]	-0.777
C[C@H]1O[C@@H](O[C@H]2[C@@H](O)C[C@H](O[C@H]3[C@@H](O)C[C@H](O[C@H]4CC[C@@]5(C)[C@H](CC[C@@H]6[C@@H]5C[C@@H](O)[C@]5(C)[C@@H](C7=CC(=O)OC7)CC[C@]65O)C4)O[C@@H]3C)O[C@@H]2C)C[C@H](O)[C@@H]1O [Digoxin]	-1.02
COc1cc([S+](C)[O-])ccc1-c1nc2cccnc2[nH]1 (centres undefined) [Sulmazole]	-1.34
CC(C(=O)O)c1ccc(-c2ccccc2)c(F)c1 (centres undefined) [Flurbiprofen]	0.131
O=C(OCC(O)CO)c1ccccc1Nc1ccnc2cc(Cl)ccc12 (centres undefined) [Glafenine hydrochloride]	-0.192
CN(C)C(=O)C(CCN1CCC(O)(c2ccc(Cl)cc2)CC1)(c1ccccc1)c1ccccc1 [Loperamide hydrochloride]	0.102
Cc1cccc(C)c1NC(=O)C(C)N (centres undefined) [Tocainide hydrochloride]	0.0384
CC(C(=O)O)c1ccc2c(c1)[nH]c1ccc(Cl)cc12 (centres undefined) [Carprofen]	0.109
CCCCc1cc2ccccc2c(OCCN(C)C)n1 [Dimethisoquin hydrochloride]	-0.18
Cc1c(-c2ccccc2)oc2c(C(=O)OCCN3CCCCC3)cccc2c1=O [Flavoxate hydrochloride]	0.0896
CN[C@@H]1[C@@H](O[C@H]2O[C@H](CO)[C@@H](N)[C@H](O)[C@H]2O)OC2C[C@@H](N)[C@@H](O[C@H]3[C@H](O)[C@@H](O)[C@H](N)C[C@@H]3N)OC2[C@@H]1O (some centres undefined) [Apramycin]	-0.0605
C#Cc1cccc(Nc2ncnc3cc(OCCOC)c(OCCOC)cc23)c1 [Erlotinib]	-0.169
N[C@@H](C(=O)N[C@@H]1C(=O)N2C(C(=O)O)=C(Cl)CC[C@H]12)c1ccccc1 [Loracarbef]	-0.211
Cc1onc(-c2ccccc2Cl)c1C(=O)N[C@@H]1C(=O)N2[C@@H]1SC(C)(C)[C@@H]2C(=O)O [Cloxacillin sodium salt]	0.141
N#Cc1ccc(C2CCCc3cncn32)cc1 (centres undefined) [Fadrozole hydrochloride]	0.0612
CN[C@@H]1[C@H](O)[C@H](NC)[C@H]2O[C@@]3(O)C(=O)C[C@@H](C)O[C@H]3O[C@@H]2[C@H]1O [Spectinomycin dihydrochloride]	-0.145
NS(=O)(=O)c1cc2c(cc1Cl)NC(C(Cl)Cl)NS2(=O)=O (centres undefined) [Trichlormethiazide]	-0.285
COc1ccccc1Oc1c(NS(=O)(=O)c2ccc(C(C)(C)C)cc2)nc(-c2ncccn2)nc1OCCO [Bosentan]	-0.283
Nc1ccccc1S(N)(=O)=O [2-Aminobenzenesulfonamide]	0.159
CC(C)[N+](C)(CCOC(=O)C1c2ccccc2Oc2ccccc21)C(C)C [Propantheline bromide]	-0.156

Structure (SMILES)	log
CN(C)CCC=C1c2ccccc2COc2ccccc21 [Doxepin hydrochloride]	0.0949
O=C(N[C@H](CO)[C@H](O)c1ccc([N+](=O)[O-])cc1)C(Cl)Cl [Chloramphenicol]	-0.296
CCC[C@@H]1C[C@@H](C(=O)N[C@@H]([C@H]2O[C@H](SC)[C@H](O)[C@@H](O)[C@H]2O)[C@H](C)Cl)N(C)C1 [Clindamycin hydrochloride]	0.0669
Cc1ccc2c(c1)c1c3n2CCNC3CCC1 (centres undefined) [Pirlindole mesylate]	-0.1
C=C1/C(=C\C=C2/CCC[C@]3(C)[C@@H]([C@H](C)CCCC(C)C)CC[C@@H]23)C[C@@H](O)C[C@@H]1O [Alfacalcidol]	-0.395
CN(C)C/C=C(/c1ccc(Br)cc1)c1cccnc1 [Zimelidine dihydrochloride monohydrate]	-0.506
CC(C)(CO)C(O)C(=O)NCCCO (centres undefined) [Panthenol (D)]	0.00284
CCOc1ccc2ccccc2c1C(=O)N[C@@H]1C(=O)N2[C@@H]1SC(C)(C)[C@@H]2C(=O)O [Nafcillin sodium salt monohydrate]	-0.116
CCN(CC)CCNC(=O)c1cc(Cl)c(N)cc1OC [Metoclopramide monohydrochloride]	0.093
Cn1cnc2c1c(=O)[nH]c(=O)n2C [Theobromine]	-0.0428
C1CCC(C(CC2CCCCN2)C2CCCCC2)CC1 (centres undefined) [Perhexiline maleate]	-0.114
CC(=O)[C@@]1(O)CC[C@H]2[C@@H]3C[C@H](C)C4=CC(=O)C=C[C@]4(C)[C@@]3(F)[C@@H](O)C[C@@]21C [Fluorometholone]	0.294
CCc1nc(N)nc(N)c1-c1ccc(Cl)cc1 [Pyrimethamine]	0.0949
CC(C)NCC(O)COc1ccc(CCOCC2CC2)cc1 (centres undefined) [Betaxolol hydrochloride]	-0.0382
COc1cc(C(=O)NCc2ccc(OCCN(C)C)cc2)cc(OC)c1OC [Trimethobenzamide hydrochloride]	0.0824
COc1ccc(-c2cc(=S)ss2)cc1 [Anethole-trithione]	-0.103
O=C(O)c1cn(C2CC2)c2cc(N3CCNCC3)c(F)cc2c1=O [Ciprofloxacin hydrochloride hydrate]	-0.0171
Cc1ccc(NC(=O)c2ccc(CN3CCN(C)CC3)cc2)cc1Nc1nccc(-c2cccnc2)n1 [Imatinib]	0.0324
CCCC1C(=O)N2C(N(C)C)=Nc3ccc(C)cc3N2C1=O (centres undefined) [Azapropazone]	-0.144
Clc1ccc(C(Cn2ccnc2)OCc2ccsc2Cl)c(Cl)c1 (centres undefined) [Tioconazole]	-0.13
c1cnc(N2CCN(Cc3ccc4c(c3)OCO4)CC2)nc1 [Piribedil hydrochloride]	0.00502
C[C@](N)(Cc1ccc(O)c(O)c1)C(=O)O [Methyldopa (L,-)]	-0.124
C[C@H]1c2cccc(O)c2C(=O)C2=C(O)[C@]3(O)C(=O)C(C(N)=O)=C(O)[C@@H](N(C)C)[C@@H]3[C@@H](O)[C@@H]21 [Doxycycline hydrochloride]	-0.849
